Laboratory results reported in article PMC10476552.
These are yes or no findings as the source states them, for the method shown. In cells and extracts the contact can be indirect. Some results given as binding are weak or reduced against the parent protein; the word gives no strength.

Amino acid sequences for entries named in this document (tags omitted).
UniProt Q92769: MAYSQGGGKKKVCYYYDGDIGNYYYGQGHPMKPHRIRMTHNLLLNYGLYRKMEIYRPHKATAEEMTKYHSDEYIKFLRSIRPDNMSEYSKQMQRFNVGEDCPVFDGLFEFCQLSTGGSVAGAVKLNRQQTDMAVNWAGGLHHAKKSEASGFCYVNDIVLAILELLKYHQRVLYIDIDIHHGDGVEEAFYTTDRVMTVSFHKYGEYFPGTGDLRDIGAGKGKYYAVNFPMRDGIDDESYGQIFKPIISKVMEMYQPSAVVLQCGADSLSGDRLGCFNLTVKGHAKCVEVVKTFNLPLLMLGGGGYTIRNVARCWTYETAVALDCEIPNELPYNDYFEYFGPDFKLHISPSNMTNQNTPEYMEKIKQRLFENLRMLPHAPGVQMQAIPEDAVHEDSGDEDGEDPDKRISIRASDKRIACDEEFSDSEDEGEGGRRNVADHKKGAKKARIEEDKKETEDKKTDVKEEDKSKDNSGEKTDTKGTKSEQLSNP
UniProt Q13547: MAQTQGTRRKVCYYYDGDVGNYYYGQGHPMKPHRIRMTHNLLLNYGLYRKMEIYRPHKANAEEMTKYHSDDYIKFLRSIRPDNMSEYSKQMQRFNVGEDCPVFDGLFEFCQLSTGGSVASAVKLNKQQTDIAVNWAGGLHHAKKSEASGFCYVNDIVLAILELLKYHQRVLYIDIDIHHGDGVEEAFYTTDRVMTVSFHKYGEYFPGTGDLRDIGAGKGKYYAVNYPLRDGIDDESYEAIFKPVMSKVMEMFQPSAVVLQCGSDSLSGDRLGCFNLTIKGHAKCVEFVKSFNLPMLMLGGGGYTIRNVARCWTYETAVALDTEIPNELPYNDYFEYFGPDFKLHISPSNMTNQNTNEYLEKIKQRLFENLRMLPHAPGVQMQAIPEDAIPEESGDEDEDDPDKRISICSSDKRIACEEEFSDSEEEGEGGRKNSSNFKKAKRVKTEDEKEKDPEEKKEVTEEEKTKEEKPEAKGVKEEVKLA
UniProt Q8N726: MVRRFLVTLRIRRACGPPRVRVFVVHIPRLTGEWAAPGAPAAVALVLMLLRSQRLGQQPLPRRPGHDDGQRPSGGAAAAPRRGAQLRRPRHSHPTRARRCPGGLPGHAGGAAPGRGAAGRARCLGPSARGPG
UniProt Q9Y3D8: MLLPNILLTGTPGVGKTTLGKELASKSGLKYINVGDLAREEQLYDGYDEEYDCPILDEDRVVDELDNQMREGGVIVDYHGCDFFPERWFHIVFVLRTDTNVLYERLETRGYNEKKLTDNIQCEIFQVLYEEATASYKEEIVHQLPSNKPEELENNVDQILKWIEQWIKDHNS

Experiments:
[1] = target: HDAC2 (UniProt Q92769); experiment: co-IP + proximity ligation; Supplementary Figure S4C; which of the two methods was used for HDAC2 is not told
[2] = target: HDAC1 (histone deacetylase 1) in HEK293T cells (UniProt Q13547); experiment: co-IP; hCINAP and HDAC1 in HEK293T cells
[3] = target: p14ARF full-length (FL), transfected (UniProt Q8N726); experiment: co-IP; HEK293T cells transfected with hCINAP and p14ARF FL, N64 or C65
[4] = target: endogenous HDAC1 (histone deacetylase 1) in IMR90 cells (human (endogenous in IMR90)) (UniProt Q13547); experiment: proximity ligation; PLA of hCINAP and HDAC1 in IMR90 cells
[5] = target: endogenous p14ARF (human (endogenous in HEK293T and IMR90)) (UniProt Q8N726); experiment: co-IP; endogenous hCINAP and p14ARF, indicated antibodies; cells not given
[6] = target: endogenous p14ARF (human (endogenous in HEK293T and IMR90)) (UniProt Q8N726); experiment: proximity ligation; Duolink PLA in fixed IMR90 cells with anti-hCINAP and anti-p14ARF antibodies

Row | binding [1] | binding [2] | binding [3] | binding [4] | binding [5] | binding [6] | Substance
1 | no binding | binds | binds | – | – | – | hCINAP in HEK293T cells (co-IP experiments with the indicated plasmids) (from UniProt Q9Y3D8 1-172)
2 | – | – | – | binds | binds | binds | endogenous hCINAP (human coilin-interacting nuclear ATPase protein) (from UniProt Q9Y3D8 1-172)
